Patent publication US8324199B2, “Pyridazine derivatives as factor xia inhibitors” (Bristol-Myers Squibb Company, priority 2008, dated 2012)
Some of these results come from one statement about several compounds together.

The chains behind the UniProt entries cited, without tags or fusion partners. Residues count along the entry.
UniProt P03951, 19-387 partner limits assumed: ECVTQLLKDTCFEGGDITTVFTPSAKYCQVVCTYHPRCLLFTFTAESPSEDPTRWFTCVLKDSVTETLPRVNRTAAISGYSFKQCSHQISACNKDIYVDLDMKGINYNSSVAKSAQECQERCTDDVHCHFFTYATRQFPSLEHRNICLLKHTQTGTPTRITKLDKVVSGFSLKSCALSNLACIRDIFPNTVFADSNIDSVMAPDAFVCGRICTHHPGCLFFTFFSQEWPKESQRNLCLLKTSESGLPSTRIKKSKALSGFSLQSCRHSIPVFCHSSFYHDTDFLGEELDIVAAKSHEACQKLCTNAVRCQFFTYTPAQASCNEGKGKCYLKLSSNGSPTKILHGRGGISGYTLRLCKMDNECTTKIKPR
UniProt P03951, 388-625 limits assumed: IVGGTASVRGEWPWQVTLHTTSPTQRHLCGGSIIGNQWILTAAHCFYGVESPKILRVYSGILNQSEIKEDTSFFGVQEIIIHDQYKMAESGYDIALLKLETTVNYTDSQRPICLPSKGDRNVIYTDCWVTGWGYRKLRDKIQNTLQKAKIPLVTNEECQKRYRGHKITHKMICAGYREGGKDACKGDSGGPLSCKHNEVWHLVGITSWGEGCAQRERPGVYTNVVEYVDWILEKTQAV

Target: T1, purified human Factor XIa (Homo sapiens, UniProt P03951)
T1 construct: purchased Haematologic Technologies
Experiment: Factor XIa assay (chromogenic substrate hydrolysis, Ki)
Assay type: biochemical
Details: tested in the Factor XIa assay described above

Compound | Factor XIa inhibitory activity
COC(=O)Nc1ccc(-c2cc([C@H](CC3CCCN(C(=O)OC(C)(C)C)C3)NC(=O)/C=C/c3cc(Cl)ccc3-n3cnnn3)n[nH]c2=O)cc1 (stereo partly drawn) [Example 138, tert-Butyl 3-((S)-2-((E)-3-(5-chloro-2-(1H-tetrazol-1-yl)phenyl)acrylamido)-2-(5-(4-(methoxycarbonylamino)phenyl)-6-oxo-1,6-dihydropyridazin-3-yl)ethyl)piperidine-1-carboxylate] | having Factor XIa inhibitory activity
COC(=O)Nc1ccc(-c2cc([C@H](CC3CN(C(C)=O)C3)NC(=O)/C=C/c3cc(Cl)ccc3-n3cnnn3)n[nH]c2=O)cc1 [Example 141, (S,E)-Methyl 4-(6-(2-(1-acetylazetidin-3-yl)-1-(3-(5-chloro-2-(1H-tetrazol-1-yl)phenyl)acrylamido)ethyl)-3-oxo-2,3-dihydropyridazin-4-yl)phenylcarbamate] | having Factor XIa inhibitory activity
COC(=O)Nc1ccc(-c2cc([C@H](CC3CCCNC3)NC(=O)/C=C/c3cc(Cl)ccc3-n3cnnn3)n[nH]c2=O)cc1 (stereo partly drawn) [Example 144, Methyl 4-(6-((1S)-1-((E)-3-(5-chloro-2-(1H-tetrazol-1-yl)phenyl)acrylamido)-2-(piperidin-3-yl)ethyl)-3-oxo-2,3-dihydropyridazin-4-yl)phenylcarbamate] | having Factor XIa inhibitory activity
COC(=O)Nc1ccc(-c2cc([C@H](CC(=O)OC(C)(C)C)NC(=O)/C=C/c3cc(Cl)ccc3-n3cnnn3)n[nH]c2=O)cc1 [Example 146, (S,E)-tert-Butyl 3-(3-(5-chloro-2-(1H-tetrazol-1-yl)phenyl)acrylamido)-3-(5-(4-(methoxycarbonylamino)phenyl)-6-oxo-1,6-dihydropyridazin-3-yl)propanoate] | having Factor XIa inhibitory activity
COC(=O)Nc1ccc(-c2cc([C@H](CC3CCN(C(=O)OCc4ccccc4)C3)NC(=O)/C=C/c3cc(Cl)ccc3-n3cnnn3)n[nH]c2=O)cc1 (stereo partly drawn) [Example 147, Benzyl 3-((S)-2-((E)-3-(5-chloro-2-(1H-tetrazol-1-yl)phenyl)acrylamido)-2-(5-(4-(methoxycarbonylamino)phenyl)-6-oxo-1,6-dihydropyridazin-3-yl)ethyl)pyrrolidine-1-carboxylate] | having Factor XIa inhibitory activity
COC(=O)Nc1ccc(-c2cc([C@H](CC3CCCN(C(=O)C4CC4)C3)NC(=O)/C=C/c3cc(Cl)ccc3-n3cnnn3)n[nH]c2=O)cc1 (stereo partly drawn) [Example 148, Methyl 4-(6-((1S)-1-((E)-3-(5-chloro-2-(1H-tetrazol-1-yl)phenyl)acrylamido)-2-(1-(cyclopropanecarbonyl)piperidin-3-yl)ethyl)-3-oxo-2,3-dihydropyridazin-4-yl)phenylcarbamate] | having Factor XIa inhibitory activity
COC(=O)Nc1ccc(-c2cc([C@H](CC3CCCN(C(=O)OC)C3)NC(=O)/C=C/c3cc(Cl)ccc3-n3cnnn3)n[nH]c2=O)cc1 (stereo partly drawn) [Example 149, Methyl 3-((S)-2-((E)-3-(5-chloro-2-(1H-tetrazol-1-yl)phenyl)acrylamido)-2-(5-(4-(methoxycarbonylamino)phenyl)-6-oxo-1,6-dihydropyridazin-3-yl)ethyl)piperidine-1-carboxylate] | having Factor XIa inhibitory activity
COC(=O)Nc1ccc(-c2cc([C@H](Cc3ccc(N)nc3)NC(=O)/C=C/c3cc(Cl)ccc3-n3cnnn3)n[nH]c2=O)cc1 [Example 150, (S,E)-Methyl 4-(6-(2-(6-aminopyridin-3-yl)-1-(3-(5-chloro-2-(1H-tetrazol-1-yl)phenyl)acrylamido)ethyl)-3-oxo-2,3-dihydropyridazin-4-yl)phenylcarbamate] | having Factor XIa inhibitory activity
COC(=O)Nc1ccc(-c2cc([C@H](CC3CCNC3)NC(=O)/C=C/c3cc(Cl)ccc3-n3cnnn3)n[nH]c2=O)cc1 (stereo partly drawn) [Example 151, Methyl 4-(6-((1S)-1-((E)-3-(5-chloro-2-(1H-tetrazol-1-yl)phenyl)acrylamido)-2-(pyrrolidin-3-yl)ethyl)-3-oxo-2,3-dihydropyridazin-4-yl)phenylcarbamate] | having Factor XIa inhibitory activity
COC(=O)Nc1ccc(-c2cc([C@H](CC3CCN(C(C)=O)C3)NC(=O)/C=C/c3cc(Cl)ccc3-n3cnnn3)n[nH]c2=O)cc1 (stereo partly drawn) [Example 152, Methyl 4-(6-((1S)-2-(1-acetylpyrrolidin-3-yl)-1-((E)-3-(5-chloro-2-(1H-tetrazol-1-yl)phenyl)acrylamido)ethyl)-3-oxo-2,3-dihydropyridazin-4-yl)phenylcarbamate] | having Factor XIa inhibitory activity
CCS(=O)(=O)N1CCCC(C[C@H](NC(=O)/C=C/c2cc(Cl)ccc2-n2cnnn2)c2cc(-c3ccc(NC(=O)OC)cc3)c(=O)[nH]n2)C1 (stereo partly drawn) [Example 153, Methyl 4-(6-((S)-1-((E)-3-(5-chloro-2-(1H-tetrazol-1-yl)phenyl)acrylamido)-2-(1-(ethylsulfonyl)piperidin-3-yl)ethyl)-3-oxo-2,3-dihydropyridazin-4-yl)phenylcarbamate] | having Factor XIa inhibitory activity
COC(=O)Nc1ccc(-c2cc([C@H](CC3CCCN(S(C)(=O)=O)C3)NC(=O)/C=C/c3cc(Cl)ccc3-n3cnnn3)n[nH]c2=O)cc1 (stereo partly drawn) [Example 154, Methyl 4-(6-((1S)-1-((E)-3-(5-chloro-2-(1H-tetrazol-1-yl)phenyl)acrylamido)-2-(1-(methylsulfonyl)piperidin-3-yl)ethyl)-3-oxo-2,3-dihydropyridazin-4-yl)phenylcarbamate] | having Factor XIa inhibitory activity
COC(=O)Nc1ccc(-c2cc([C@H](CC3CCCN(S(=O)(=O)C(C)C)C3)NC(=O)/C=C/c3cc(Cl)ccc3-n3cnnn3)n[nH]c2=O)cc1 (stereo partly drawn) [Example 155, Methyl 4-(6-((S)-1-((E)-3-(5-chloro-2-(1H-tetrazol-1-yl)phenyl)acrylamido)-2-(1-(isopropylsulfonyl)piperidin-3-yl)ethyl)-3-oxo-2,3-dihydropyridazin-4-yl)phenylcarbamate] | having Factor XIa inhibitory activity
COC(=O)Nc1ccc(-c2cc([C@H](CC3CCCN(S(=O)(=O)C4CC4)C3)NC(=O)/C=C/c3cc(Cl)ccc3-n3cnnn3)n[nH]c2=O)cc1 (stereo partly drawn) [Example 156, Methyl 4-(6-((S)-1-((E)-3-(5-chloro-2-(1H-tetrazol-1-yl)phenyl)acrylamido)-2-(1-(cyclopropylsulfonyl)piperidin-3-yl)ethyl)-3-oxo-2,3-dihydropyridazin-4-yl)phenylcarbamate] | having Factor XIa inhibitory activity
COC(=O)Nc1ccc(-c2cc([C@H](Cc3cscn3)NC(=O)/C=C/c3cc(Cl)ccc3-n3cnnn3)n[nH]c2=O)cc1 [Example 161, (S,E)-Methyl 4-(6-(1-(3-(5-chloro-2-(1H-tetrazol-1-yl)phenyl)acrylamido)-2-(thiazol-4-yl)ethyl)-3-oxo-2,3-dihydropyridazin-4-yl)phenylcarbamate] | having Factor XIa inhibitory activity
COC(=O)Nc1ccc(-c2cc([C@H](Cc3nc(C)cs3)NC(=O)/C=C/c3cc(Cl)ccc3-n3cnnn3)n[nH]c2=O)cc1 [Example 162, (S,E)-Methyl 4-(6-(1-(3-(5-chloro-2-(1H-tetrazol-1-yl)phenyl)acrylamido)-2-(4-methylthiazol-2-yl)ethyl)-3-oxo-2,3-dihydropyridazin-4-yl)phenylcarbamate] | having Factor XIa inhibitory activity
COC(=O)Nc1ccc(-c2cc([C@H](Cc3nc(C)cs3)NC(=O)/C=C/c3c(-n4cnnn4)ccc(Cl)c3F)n[nH]c2=O)cc1 [Example 163, (S,E)-Methyl 4-(6-(1-(3-(3-chloro-2-fluoro-6-(1H-tetrazol-1-yl)phenyl)acrylamido)-2-(4-methylthiazol-2-yl)ethyl)-3-oxo-2,3-dihydropyridazin-4-yl)phenylcarbamate] | having Factor XIa inhibitory activity
COC(=O)Nc1ccc(-c2cc([C@H](CNC(=O)OC(C)(C)C)NC(=O)/C=C/c3cc(Cl)ccc3-n3cnnn3)n[nH]c2=O)cc1 [Example 164, [4-(6-{(S)-2-tert-Butoxycarbonylamino-1-[(E)-3-(5-chloro-2-tetrazol-1-yl-phenyl)-acryloylamino]-ethyl}-3-oxo-2,3-dihydro-pyridazin-4-yl)-phenyl]-carbamic acid methyl ester] | having Factor XIa inhibitory activity
COC(=O)Nc1ccc(-c2cc([C@H](CNC(=O)C(C)(C)C)NC(=O)/C=C/c3cc(Cl)ccc3-n3cnnn3)n[nH]c2=O)cc1 [Example 165, (S,E)-Methyl 4-(6-(1-(3-(5-chloro-2-(1H-tetrazol-1-yl)phenyl)acrylamido)-2-pivalamidoethyl)-3-oxo-2,3-dihydropyridazin-4-yl)phenylcarbamate] | having Factor XIa inhibitory activity
COC(=O)Nc1ccc(-c2cc([C@H](CN3CCOC3=O)NC(=O)/C=C/c3cc(Cl)ccc3-n3cnnn3)n[nH]c2=O)cc1 [Example 166, (S,E)-Methyl 4-(6-(1-(3-(5-chloro-2-(1H-tetrazol-1-yl)phenyl)acrylamido)-2-(2-oxooxazolidin-3-yl)ethyl)-3-oxo-2,3-dihydropyridazin-4-yl)phenylcarbamate] | having Factor XIa inhibitory activity
COC(=O)Nc1ccc(-c2cc(C(Cc3csc(C(C)C)n3)NC(=O)/C=C/c3cc(Cl)ccc3-n3cnnn3)n[nH]c2=O)cc1 (stereo not shown) [Example 167, (E)-Methyl 4-(6-(1-(3-(5-chloro-2-(1H-tetrazol-1-yl)phenyl)acrylamido)-2-(2-isopropylthiazol-4-yl)ethyl)-3-oxo-2,3-dihydropyridazin-4-yl)phenylcarbamate] | having Factor XIa inhibitory activity
COC(=O)Nc1ccc(-c2cc(C(Cc3nnc(C4CC4)s3)NC(=O)/C=C/c3cc(Cl)ccc3-n3cnnn3)n[nH]c2=O)cc1 (stereo not shown) [Example 168, (E)-Methyl 4-(6-(1-(3-(5-chloro-2-(1H-tetrazol-1-yl)phenyl)acrylamido)-2-(5-cyclopropyl-1,3,4-thiadiazol-2-yl)ethyl)-3-oxo-2,3-dihydropyridazin-4-yl)phenylcarbamate] | having Factor XIa inhibitory activity
